Measured values published in the supplement of paper PMC10849652.
This is one part of the list.

Amino acid sequences for entries named in this document (tags omitted). A change or cut given only in a name is not applied to a line headed by its entry.
UniProt P25815: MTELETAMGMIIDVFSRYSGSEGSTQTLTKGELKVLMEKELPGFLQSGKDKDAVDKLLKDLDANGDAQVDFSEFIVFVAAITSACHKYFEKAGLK
UniProt Q15404: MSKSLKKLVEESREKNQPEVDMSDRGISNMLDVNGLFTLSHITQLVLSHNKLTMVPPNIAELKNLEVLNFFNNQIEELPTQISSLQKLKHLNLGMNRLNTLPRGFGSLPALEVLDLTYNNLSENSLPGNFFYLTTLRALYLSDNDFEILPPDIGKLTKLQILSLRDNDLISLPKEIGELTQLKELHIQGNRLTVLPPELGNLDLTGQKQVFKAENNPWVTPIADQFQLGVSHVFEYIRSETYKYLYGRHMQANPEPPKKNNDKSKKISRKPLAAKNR
UniProt Q9BW04: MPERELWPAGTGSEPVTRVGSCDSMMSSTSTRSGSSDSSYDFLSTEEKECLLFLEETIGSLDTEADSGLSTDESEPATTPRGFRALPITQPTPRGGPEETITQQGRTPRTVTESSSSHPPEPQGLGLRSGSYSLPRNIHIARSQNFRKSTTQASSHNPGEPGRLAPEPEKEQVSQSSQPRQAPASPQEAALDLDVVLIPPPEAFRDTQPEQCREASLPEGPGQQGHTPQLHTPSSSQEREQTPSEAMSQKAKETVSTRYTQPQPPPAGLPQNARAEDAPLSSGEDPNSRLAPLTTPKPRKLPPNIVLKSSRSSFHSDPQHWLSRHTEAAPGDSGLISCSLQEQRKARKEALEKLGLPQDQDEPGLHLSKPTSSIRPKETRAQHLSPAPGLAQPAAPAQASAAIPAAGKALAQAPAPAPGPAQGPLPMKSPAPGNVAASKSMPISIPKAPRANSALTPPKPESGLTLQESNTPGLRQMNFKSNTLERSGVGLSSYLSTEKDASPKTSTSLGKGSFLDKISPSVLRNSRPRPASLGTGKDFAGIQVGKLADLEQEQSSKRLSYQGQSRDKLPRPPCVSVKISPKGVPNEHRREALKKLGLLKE
UniProt Q14108: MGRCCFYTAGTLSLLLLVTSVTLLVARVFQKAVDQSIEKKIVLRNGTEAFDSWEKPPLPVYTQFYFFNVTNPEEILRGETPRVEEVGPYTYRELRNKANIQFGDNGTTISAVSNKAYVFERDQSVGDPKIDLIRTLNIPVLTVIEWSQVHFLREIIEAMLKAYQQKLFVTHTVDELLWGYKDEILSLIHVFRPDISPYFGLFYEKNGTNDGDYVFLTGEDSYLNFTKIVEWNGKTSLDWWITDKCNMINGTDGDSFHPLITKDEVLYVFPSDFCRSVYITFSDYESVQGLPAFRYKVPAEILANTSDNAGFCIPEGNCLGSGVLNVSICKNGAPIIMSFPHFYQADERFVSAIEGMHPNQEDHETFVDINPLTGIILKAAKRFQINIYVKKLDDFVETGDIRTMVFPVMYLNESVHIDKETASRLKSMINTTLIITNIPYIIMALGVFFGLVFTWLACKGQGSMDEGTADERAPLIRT
UniProt Q9Y6U3: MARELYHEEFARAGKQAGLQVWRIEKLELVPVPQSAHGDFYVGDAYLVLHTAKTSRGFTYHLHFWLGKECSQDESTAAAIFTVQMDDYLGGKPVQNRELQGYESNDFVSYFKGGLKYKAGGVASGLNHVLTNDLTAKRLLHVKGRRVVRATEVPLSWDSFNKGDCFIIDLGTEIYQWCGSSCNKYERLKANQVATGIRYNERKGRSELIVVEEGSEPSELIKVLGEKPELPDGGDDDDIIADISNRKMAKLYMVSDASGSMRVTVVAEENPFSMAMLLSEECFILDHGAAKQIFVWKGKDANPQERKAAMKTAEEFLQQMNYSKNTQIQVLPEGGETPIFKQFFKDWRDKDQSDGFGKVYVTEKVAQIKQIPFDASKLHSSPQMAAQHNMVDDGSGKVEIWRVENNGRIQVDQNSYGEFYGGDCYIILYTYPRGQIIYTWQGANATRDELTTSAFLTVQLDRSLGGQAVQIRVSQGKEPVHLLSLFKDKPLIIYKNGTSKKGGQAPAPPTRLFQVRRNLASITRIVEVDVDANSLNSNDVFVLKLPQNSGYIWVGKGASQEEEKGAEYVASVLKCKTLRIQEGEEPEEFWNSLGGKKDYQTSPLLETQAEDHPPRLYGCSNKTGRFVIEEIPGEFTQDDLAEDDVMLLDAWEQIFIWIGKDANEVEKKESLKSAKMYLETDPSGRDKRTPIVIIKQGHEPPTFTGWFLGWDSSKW
UniProt Q13296: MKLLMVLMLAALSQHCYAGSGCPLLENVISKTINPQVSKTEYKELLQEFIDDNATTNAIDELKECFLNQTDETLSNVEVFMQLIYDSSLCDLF
UniProt Q9Y3A4: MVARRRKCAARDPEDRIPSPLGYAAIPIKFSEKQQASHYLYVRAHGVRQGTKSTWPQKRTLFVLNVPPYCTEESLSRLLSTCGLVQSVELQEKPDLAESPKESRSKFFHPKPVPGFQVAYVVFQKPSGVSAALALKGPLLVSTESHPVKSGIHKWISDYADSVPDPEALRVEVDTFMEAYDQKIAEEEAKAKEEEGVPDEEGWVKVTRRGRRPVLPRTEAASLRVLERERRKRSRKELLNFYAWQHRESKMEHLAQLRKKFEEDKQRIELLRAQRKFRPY
UniProt O14828: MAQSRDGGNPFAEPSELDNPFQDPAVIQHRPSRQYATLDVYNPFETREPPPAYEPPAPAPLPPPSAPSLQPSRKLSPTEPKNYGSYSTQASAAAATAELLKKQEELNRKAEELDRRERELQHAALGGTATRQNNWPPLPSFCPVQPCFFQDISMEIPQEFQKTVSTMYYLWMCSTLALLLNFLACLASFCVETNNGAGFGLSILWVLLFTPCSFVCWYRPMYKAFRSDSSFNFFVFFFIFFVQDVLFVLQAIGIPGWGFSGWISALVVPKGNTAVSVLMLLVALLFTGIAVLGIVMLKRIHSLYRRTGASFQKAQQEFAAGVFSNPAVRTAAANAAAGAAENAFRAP
UniProt Q0VDG4: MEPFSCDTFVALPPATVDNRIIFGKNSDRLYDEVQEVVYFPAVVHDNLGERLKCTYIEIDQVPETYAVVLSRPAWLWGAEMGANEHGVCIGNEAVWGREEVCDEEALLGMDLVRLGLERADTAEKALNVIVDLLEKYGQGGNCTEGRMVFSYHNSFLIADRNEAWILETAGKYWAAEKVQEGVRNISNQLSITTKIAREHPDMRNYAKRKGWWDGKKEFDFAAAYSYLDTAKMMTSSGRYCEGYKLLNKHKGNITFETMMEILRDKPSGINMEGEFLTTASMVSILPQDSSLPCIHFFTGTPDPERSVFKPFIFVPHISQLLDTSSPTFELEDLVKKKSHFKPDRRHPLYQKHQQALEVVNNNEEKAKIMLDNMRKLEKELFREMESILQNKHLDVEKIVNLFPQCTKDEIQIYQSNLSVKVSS
UniProt O95969: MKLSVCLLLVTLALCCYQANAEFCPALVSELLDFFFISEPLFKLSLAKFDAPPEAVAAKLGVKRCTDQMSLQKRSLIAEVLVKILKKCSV
UniProt P55735: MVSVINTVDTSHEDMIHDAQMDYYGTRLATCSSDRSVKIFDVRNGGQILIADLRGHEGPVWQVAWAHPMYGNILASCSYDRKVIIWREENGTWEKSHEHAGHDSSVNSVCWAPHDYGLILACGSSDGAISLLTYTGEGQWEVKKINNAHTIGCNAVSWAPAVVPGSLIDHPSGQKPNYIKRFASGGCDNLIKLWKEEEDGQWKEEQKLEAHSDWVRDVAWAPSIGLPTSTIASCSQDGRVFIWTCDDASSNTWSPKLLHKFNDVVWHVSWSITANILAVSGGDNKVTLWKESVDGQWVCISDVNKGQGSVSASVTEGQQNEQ
UniProt Q8WWV3: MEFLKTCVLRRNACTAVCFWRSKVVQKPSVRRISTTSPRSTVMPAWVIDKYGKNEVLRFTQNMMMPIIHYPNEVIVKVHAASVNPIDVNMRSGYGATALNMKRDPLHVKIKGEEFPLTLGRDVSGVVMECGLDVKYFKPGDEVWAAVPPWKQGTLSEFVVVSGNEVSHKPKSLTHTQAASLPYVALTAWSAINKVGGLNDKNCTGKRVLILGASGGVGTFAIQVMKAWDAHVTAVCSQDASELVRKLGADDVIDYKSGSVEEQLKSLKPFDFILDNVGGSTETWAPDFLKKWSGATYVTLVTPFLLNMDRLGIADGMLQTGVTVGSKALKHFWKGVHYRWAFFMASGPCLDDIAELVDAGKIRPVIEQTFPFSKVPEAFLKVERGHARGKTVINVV
UniProt Q8N488: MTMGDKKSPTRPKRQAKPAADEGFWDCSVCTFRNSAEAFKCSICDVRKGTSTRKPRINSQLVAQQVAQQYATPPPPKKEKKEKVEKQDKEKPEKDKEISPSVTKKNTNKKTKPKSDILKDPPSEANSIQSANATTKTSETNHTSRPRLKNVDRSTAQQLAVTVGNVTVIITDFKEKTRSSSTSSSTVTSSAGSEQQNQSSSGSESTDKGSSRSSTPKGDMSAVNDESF
UniProt O95197: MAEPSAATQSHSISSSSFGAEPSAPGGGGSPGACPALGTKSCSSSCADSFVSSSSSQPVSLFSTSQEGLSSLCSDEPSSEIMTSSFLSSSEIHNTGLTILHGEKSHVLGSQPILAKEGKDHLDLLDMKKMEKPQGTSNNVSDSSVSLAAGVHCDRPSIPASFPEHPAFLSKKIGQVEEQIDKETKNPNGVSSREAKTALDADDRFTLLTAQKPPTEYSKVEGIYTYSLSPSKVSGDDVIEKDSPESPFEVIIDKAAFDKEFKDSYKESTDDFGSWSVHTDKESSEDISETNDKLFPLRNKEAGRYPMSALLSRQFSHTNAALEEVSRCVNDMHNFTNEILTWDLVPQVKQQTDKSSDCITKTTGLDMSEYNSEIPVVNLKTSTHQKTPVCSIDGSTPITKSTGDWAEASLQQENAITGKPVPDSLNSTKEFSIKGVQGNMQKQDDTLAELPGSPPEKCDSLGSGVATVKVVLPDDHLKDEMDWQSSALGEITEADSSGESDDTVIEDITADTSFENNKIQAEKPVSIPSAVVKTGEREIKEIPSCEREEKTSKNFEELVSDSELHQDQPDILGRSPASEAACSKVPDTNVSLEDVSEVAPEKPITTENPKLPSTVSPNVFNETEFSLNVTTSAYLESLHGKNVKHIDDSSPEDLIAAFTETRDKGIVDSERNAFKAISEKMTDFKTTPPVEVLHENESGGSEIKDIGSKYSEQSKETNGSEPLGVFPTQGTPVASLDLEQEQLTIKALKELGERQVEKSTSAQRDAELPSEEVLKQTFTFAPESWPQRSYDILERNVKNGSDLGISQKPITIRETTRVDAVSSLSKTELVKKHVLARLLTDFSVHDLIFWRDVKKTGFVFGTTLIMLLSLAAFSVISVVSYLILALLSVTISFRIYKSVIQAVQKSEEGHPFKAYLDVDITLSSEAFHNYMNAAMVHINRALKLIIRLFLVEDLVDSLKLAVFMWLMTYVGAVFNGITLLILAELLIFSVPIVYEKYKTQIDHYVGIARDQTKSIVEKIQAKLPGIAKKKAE
UniProt Q96IZ7: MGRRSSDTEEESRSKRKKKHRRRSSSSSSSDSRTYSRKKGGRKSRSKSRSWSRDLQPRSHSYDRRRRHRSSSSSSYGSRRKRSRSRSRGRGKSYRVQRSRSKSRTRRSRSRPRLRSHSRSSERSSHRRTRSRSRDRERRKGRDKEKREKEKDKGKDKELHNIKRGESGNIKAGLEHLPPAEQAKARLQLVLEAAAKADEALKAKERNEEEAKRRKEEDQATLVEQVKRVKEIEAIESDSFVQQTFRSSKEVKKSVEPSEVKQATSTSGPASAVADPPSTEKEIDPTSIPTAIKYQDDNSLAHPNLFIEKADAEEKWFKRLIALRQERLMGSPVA
UniProt Q96ER3: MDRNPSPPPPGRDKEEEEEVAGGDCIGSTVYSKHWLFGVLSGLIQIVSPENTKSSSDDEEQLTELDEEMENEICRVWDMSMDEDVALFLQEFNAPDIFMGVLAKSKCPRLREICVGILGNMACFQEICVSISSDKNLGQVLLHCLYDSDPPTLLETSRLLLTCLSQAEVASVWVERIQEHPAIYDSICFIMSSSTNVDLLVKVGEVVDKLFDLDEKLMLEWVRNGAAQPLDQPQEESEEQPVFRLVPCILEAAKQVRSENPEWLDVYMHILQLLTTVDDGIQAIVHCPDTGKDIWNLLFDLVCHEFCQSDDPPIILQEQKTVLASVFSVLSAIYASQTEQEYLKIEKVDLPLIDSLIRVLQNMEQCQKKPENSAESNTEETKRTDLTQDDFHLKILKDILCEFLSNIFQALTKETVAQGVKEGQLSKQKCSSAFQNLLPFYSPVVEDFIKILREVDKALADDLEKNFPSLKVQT
UniProt O00767: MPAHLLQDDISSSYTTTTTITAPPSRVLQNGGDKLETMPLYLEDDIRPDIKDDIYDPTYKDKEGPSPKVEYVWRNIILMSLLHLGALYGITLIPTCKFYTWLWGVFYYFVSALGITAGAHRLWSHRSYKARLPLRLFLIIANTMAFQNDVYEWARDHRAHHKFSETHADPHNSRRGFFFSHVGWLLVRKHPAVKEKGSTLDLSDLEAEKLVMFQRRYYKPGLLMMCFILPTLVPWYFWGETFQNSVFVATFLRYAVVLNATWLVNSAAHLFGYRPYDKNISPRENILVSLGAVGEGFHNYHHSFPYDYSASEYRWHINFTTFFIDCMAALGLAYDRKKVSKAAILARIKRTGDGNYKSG

What was measured:
Assay in all cases: log2 fold change, soluble protein after heating vs DMSO (PISA); higher = thermal stabilisation; K562 cells, 10 uM, 30 min; active = over 0.2 and 3.5 SD of the protein, either way, in both replicates (recomputed)
[1] = compound: CC[C@@H]1C(=O)N(C)c2cnc(Nc3ccc(C(=O)NC4CCN(C)CC4)cc3OC)nc2N1C1CCCC1
Procedure, shortened: (§1)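 Thermal stability values are relative to control samples and come from duplicates. They are expressed as log2 fold changes. For measurement, K562 cells (2×10^6 cells/mL) received 10 μM compound for 30 min, and aliquots were heated for 3 min over 48°C-58°C, pooled, and extracted at 4°C in PBS with 0.5% NP-40. Soluble protein, the supernatant after 21,000xg for 90 min, was quantified by TMTpro 16plex LC-MS/MS with equalised channel sums.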

volasertib = compound: CC[C@@H]1C(=O)N(C)c2cnc(Nc3ccc(C(=O)N[C@H]4CC[C@H](N5CCN(CC6CC6)CC5)CC4)cc3OC)nc2N1C(C)C [volasertib]
Procedure, shortened: as §1

[2] = compound: CC[C@H](C)N1C=C(C2=C(C=C(C=C21)C3=CN=C(C=C3)N4CCNCC4)C(=O)NCC5=C(C=C(NC5=O)C)C)C
Procedure, shortened: as §1

epoxomicin = compound: CC[C@H](C)[C@@H](C(=O)N[C@@H]([C@@H](C)O)C(=O)N[C@@H](CC(C)C)C(=O)[C@]1(CO1)C)NC(=O)[C@H]([C@@H](C)CC)N(C)C(=O)C [epoxomicin]
Procedure, shortened: as §1

[3] = compound: CCn1c(C(=O)N(C2CC2)C2CC2)cc2c3c(ncn3C)c(Nc3cc(C)n(C)n3)nc21
Procedure, shortened: as §1

[4] = compound: CCn1cc(-c2ccnc3[nH]c(-c4cccc(CN(C)C)c4)cc23)c(-c2ccc(NC(=O)N(C)C)cc2)n1
Procedure, shortened: as §1

[5] = compound: CN(C)CC(=O)Nc1ccc2[nH]c(=O)c3ccccc3c2c1
Procedure, shortened: as §1

rosiglitazone = compound: CN(CCOC1=CC=C(C=C1)C[C@H]2C(=O)NC(=O)S2)C3=CC=CC=N3 (racemic) [rosiglitazone]
Procedure, shortened: as §1

[6] = compound: CN1C2=C(C3=C1C(=O)N(N=C3)CC4=CC(=CC=C4)N)SC(=C2)S(=O)C
Procedure, shortened: as §1

[7] = compound: CN1CCC(CNc2ccc3ncc(-c4cccc(OC(F)(F)F)c4)n3n2)CC1
Procedure, shortened: as §1

Measured: log2 fold change

SAR1A (UniProt Q9NR31)
inactive: [1] 0.03 | volasertib 0.169 | [2] -0.011 | epoxomicin 0.118 | [3] -0.019 | [4] -0.024 | [5] 0.047 | rosiglitazone 0.008 | [6] -0.04 | [7] 0.12

S100A6 (UniProt P06703)
inactive: [1] -0.083 | volasertib 0.178 | [2] 0.042 | epoxomicin 0.029 | [3] 0.084 | [4] -0.097 | rosiglitazone -0.02 | [6] 0.01 | [7] 0.131

S100P (UniProt P25815)
inactive: [1] 0.003 | volasertib -0.023 | [2] 0.019 | epoxomicin 0.221 | [3] 0.099 | [4] 0.025 | [5] -0.018 | rosiglitazone 0.044 | [6] 0.088 | [7] 0.153

SCAMP1 (UniProt O15126)
inactive: [1] 0.053 | volasertib 0.001 | [2] -0.006 | epoxomicin -0.031 | [3] -0.018 | [4] -0.01 | [5] -0.04 | rosiglitazone 0 | [6] -0.016 | [7] -0.036

RSU1 (UniProt Q15404)
inactive: [1] 0.004 | volasertib 0.051 | [2] -0.006 | epoxomicin -0.027 | [3] -0.001 | [4] 0.01 | [5] -0.027 | rosiglitazone -0.011 | [6] -0.062 | [7] -0.003

SBF1 isoform 4 (UniProt O95248)
inactive: [1] -0.082 | volasertib -0.032 | [2] -0.009 | epoxomicin -0.175 | [3] -0.034 | [4] -0.019 | [5] 0.065 | rosiglitazone -0.111 | [6] 0.153 | [7] -0.299

SARG (UniProt Q9BW04)
inactive: [1] 0.03 | volasertib 0.011 | [2] -0.038 | epoxomicin -0.001 | [3] -0.08 | [4] -0.034 | [5] -0.017 | rosiglitazone -0.006 | [6] 0.023 | [7] -0.055

2 records drawn at random from those above:
SBF1 isoform 4 (UniProt O95248)
inactive: [1] -0.082 | volasertib -0.032 | [2] -0.009 | epoxomicin -0.175 | [3] -0.034 | [4] -0.019 | [5] 0.065 | rosiglitazone -0.111 | [6] 0.153 | [7] -0.299

RSU1 (UniProt Q15404)
inactive: [1] 0.004 | volasertib 0.051 | [2] -0.006 | epoxomicin -0.027 | [3] -0.001 | [4] 0.01 | [5] -0.027 | rosiglitazone -0.011 | [6] -0.062 | [7] -0.003

Carrying on.

SCARB2 (UniProt Q14108)
inactive: [1] -0.075 | volasertib -0.105 | [2] -0.034 | epoxomicin 0.086 | [3] 0.008 | [4] -0.012 | [5] 0.062 | rosiglitazone 0 | [6] 0.071 | [7] 0.06

SCIN (UniProt Q9Y6U3)
inactive: [1] -0.094 | volasertib -0.197 | [2] 0.043 | epoxomicin 0 | [3] -0.025 | [4] -0.067 | [5] 0.02 | rosiglitazone 0.059 | [6] 0.036 | [7] -0.165

SCGB2A2 (UniProt Q13296)
inactive: [1] -0.031 | volasertib -0.123 | [2] 0.106 | epoxomicin 1.13 | [4] 0.108 | [5] -0.304 | rosiglitazone 1.12 | [7] -0.743

RRP7A (UniProt Q9Y3A4)
inactive: [1] -0.018 | volasertib 0.12 | [2] 0.007 | epoxomicin -0.066 | [3] 0.09 | [5] -0.047 | rosiglitazone 0.022

SACS (UniProt Q9NZJ4)
inactive: [1] -0.036 | volasertib 0.109 | [2] -0.016 | epoxomicin -0.069 | [3] 0.041 | [4] 0.036 | [5] -0.191 | rosiglitazone -0.033 | [6] 0.16 | [7] -0.118

SCAMP3 (UniProt O14828)
inactive: [1] -0.03 | volasertib -0.022 | [2] -0.015 | epoxomicin -0.066 | [3] 0.051 | [4] -0.007 | [5] -0.027 | rosiglitazone -0.009 | [6] 0.009 | [7] 0.008

SCRN3 (UniProt Q0VDG4)
inactive: [1] 0.057 | volasertib 0.019 | [2] 0.041 | epoxomicin 0.121 | [3] 0.009 | [4] -0.037 | [5] 0.012 | rosiglitazone 0.054 | [6] 0.003 | [7] -0.087

SCGB1D2 (UniProt O95969)
inactive: [1] -0.006 | volasertib -0.242 | [2] 0.253 | epoxomicin 0.987 | [3] -0.111 | [5] -0.381 | rosiglitazone 1.05 | [6] 0.239

SEC13 isoform 3 (UniProt P55735)
inactive: [1] 0.045 | volasertib 0.013 | [2] 0.002 | epoxomicin 0.065 | [3] -0.014 | [4] -0.018 | [5] 0.006 | rosiglitazone 0.021 | [6] 0.029 | [7] -0.072

RWDD4 (UniProt Q6NW29)
inactive: [1] -0.109 | volasertib -0.354 | [2] -0.12 | epoxomicin -0.056 | [3] 0.008 | [4] 0.009 | [5] -0.003 | rosiglitazone 0.067 | [6] 0.035 | [7] -0.111

RTN4IP1 (UniProt Q8WWV3)
inactive: [1] -0.118 | volasertib -0.196 | [2] -0.059 | epoxomicin -0.02 | [4] -0.079 | [5] -0.003 | [6] -0.219 | [7] -0.12
active: rosiglitazone 0.965

RYBP (UniProt Q8N488)
inactive: [1] 0.059 | volasertib -0.013 | [2] -0.059 | epoxomicin 0.029 | [3] -0.046 | [4] 0.062 | [5] -0.011 | rosiglitazone -0.032 | [6] 0.037 | [7] -0.034

RTN3 isoform 5 (UniProt O95197)
inactive: [1] 0.047 | volasertib -0.032 | [2] -0.054 | epoxomicin 0.056 | [3] 0.011 | [5] 0.159 | rosiglitazone 0.084 | [6] -0.127

SDHC (UniProt Q99643)
inactive: [1] 0.042 | volasertib 0.036 | [2] -0.1 | epoxomicin 0.205 | [4] 0 | [5] 0.264 | [6] -0.068 | [7] 0.023

RSRC1 (UniProt Q96IZ7)
inactive: [1] 0.01 | volasertib 0.056 | [2] -0.041 | epoxomicin 0.083 | [4] -0.021 | [5] -0.005 | [6] -0.01 | [7] -0.062

RRP12 (UniProt Q5JTH9)
inactive: [1] 0.246 | volasertib 0 | [2] 0.029 | epoxomicin 0.054 | [4] -0.057 | [5] -0.046 | [6] 0.066 | [7] 0.161

SAAL1 (UniProt Q96ER3)
active: volasertib -0.245
inactive: [1] -0.167 | [2] 0.001 | epoxomicin 0.025 | [4] 0.025 | [5] -0.025 | [6] -0.012 | [7] -0.219

SCD (UniProt O00767)
inactive: [1] 0 | volasertib 0.009 | [2] -0.063 | epoxomicin 0.109 | [4] 0.036 | [5] 0.008 | [6] 0.025 | [7] 0.095

RSL1D1 (UniProt O76021)
inactive: [1] 0.301 | volasertib 0.399 | [2] 0.012 | epoxomicin -0.517 | [4] 0.155 | [5] -0.214 | [6] 0.374 | [7] 0.591

SCAMP2 (UniProt H3BUB6)
inactive: [1] -0.015 | volasertib -0.006 | [2] -0.092 | epoxomicin -0.157 | [5] -0.201 | [6] 0.064
